Test results: patent US20090269796A1, “METHODS OF DETECTING AND TREATING MYOCARDIAL ISCHEMIA AND MYOCARDIAL INFARCTION” (THE GENERAL HOSPITAL CORPORATION, priority 2007, published 2009)

Key:
Type in all cases: in vivo, human
[1] = Metabolite changes in peripheral plasma after planned MI (alcohol septal ablation), LC-MS/MS profiling; conditions: for Median Δ (% change from baseline): peripheral blood; for Observed increase in response to injury: planned MI, range of six representative compounds
From the text: A total of 36 patients undergoing planned MI using alcohol septal ablation for the treatment of symptomatic hypertrophic obstructive cardiomyopathy (HOCM) were included. Inclusion criteria for the cohort were: 1) primary HOCM; 2) septal thickness of 16 mm or greater; 3) resting outflow tract gradient of greater than 30 mmHg, or an inducible outflow tract gradient of at least 50 mm Hg; 4) symptoms refractory to optimal medical therapy; and 5) appropriate coronary anatomy. The most proximal accessible septal branch was instrumented using standard angioplasty guiding catheters and guidewires and 1.5 or 2.0 mm×9 mm Maverick™ balloon catheters. Radiographic and echocardiographic contrast injections confirmed proper selection of the septal branch and balloon catheter position. Ethanol was infused through the balloon catheter at 1 ml per minute. Additional injections in the same or other septal branches were administered as needed, causing cessation of blood flow to the isolated myocardium, and to reduce the gradient to <20 mmHg.^16
Blood was drawn at baseline (just prior to the onset of the ablation) and at minutes, 1 hour, 2 hours, 4 hours and 24 hours following the onset of injury as depicted in FIG. 1. 13 of the 36 patients consented to the placement of a coronary sinus catheter during the ablation, allowing for the simultaneous sampling from coronary sinus and femoral catheters at the baseline, 10-minute and 1-hour time points. The coronary sinus catheter was subsequently removed prior to the patient leaving the catheterization suite.
Samples were obtained from femoral venous catheters during the procedure or, where indicated, from a catheter placed in the coronary sinus. Samples were collected in K2EDTA-treated tubes (Becton Dickinson). All blood samples were centrifuged at 2000×g for 10 minutes to pellet cellular elements. The supernatant plasma was then aliquoted and immediately frozen at −80° C. to minimize freeze-thaw degradation. Additional blood samples were sent to the clinical chemistry laboratory for evaluation of the standard cardiac markers creatine kinase (CK), CK-MB, and Troponin T (Roche Diagnostics).
For the analysis of sugars, ribonucleotides, and organic acids, 200 μl of plasma was subjected to ethanol precipitation (80% ethanol, 19.9% H2O, 0.1% formic acid) at 4° C. for 2 hours, centrifuged at 15000×g for 15 minutes, and the supernatant evaporated in a nitrogen-chamber at 30° C. (Caliper Life Sciences). Samples were reconstituted in 60 μl H2O, and aliquots were separated sequentially and automatically by injection onto three HPLC columns with orthogonal separation characteristics, as previously described.^10 Sugars and ribonucleotides were separated on a Luna amino column (Phenomenex) under normal phase using acetonitrile/water/0.25% ammonium hydroxide/10 mM ammonium acetate at pH 11 in a run time of 3.5 minutes. Organic acids were separated using a Synergi Polar-RP column (Phenomenex) under reverse phase using acetonitrile/water/5 mM ammonium acetate at pH 5.6-6.0 in a run time of 3.5 minutes. For the analysis of amino acids, plasma was diluted 10-fold with H2O and then subjected to reverse phase chromatography on a Luna phenyl-hexyl column (Phenomenex) using acetonitrile/water/0.1% acetic acid at pH 3.5-4.0 in a run time of 1.5 minutes.
The three HPLC columns were connected in parallel via an automated switching valve on a robotic sample loader (Leap Technologies) to a triple quadrupole mass spectrometer (AB4000Q, Applied Biosystem/Sciex), operated in electrospray ionization mode using a turbo ion spray LC/MS interface. Either positive or negative ions were selected for targeted MS/MS analysis using selective reaction monitoring (SRM) conditions. A total of 210 known metabolites were monitored for each sample. Precursor and product ions of metabolites presented in tables are detailed in Table 1, below. […]

[2] = Simultaneous coronary sinus and peripheral plasma sampling after planned MI (13-patient subgroup), LC-MS/MS profiling; conditions: for Ratio CS/P: coronary sinus change versus peripheral change; for Coronary Sinus Median ± IQR Δ (% change from baseline) / Coronary Sinus Median Δ (% change from baseline): coronary sinus plasma; for Peripheral Median ± IQR Δ (% change from baseline) / Peripheral Median Δ (% change from baseline): peripheral plasma of the coronary sinus subgroup
[3] = Control cohort: elective diagnostic cardiac catheterization without MI, plasma metabolite changes; conditions: 10-minute or 60-minute time points, P<0.01
[4] = 60 minutes after myocardial injury, derivation cohort (n=20)
[5] = 60 minutes after myocardial injury, validation cohort (n=16)
[6] = 60 minutes after myocardial injury
[7] = 10 minutes after myocardial injury
[8] = 10 minutes after myocardial injury, derivation cohort (n=20)
[9] = 10 minutes after myocardial injury, validation cohort (n=16)

Molecule | Median Δ (% change from baseline) [1, 4] [%] | Median Δ (% change from baseline) [1, 5] [%] | Coronary Sinus Median ± IQR Δ (% change from baseline) [2, 6] [%] | Peripheral Median ± IQR Δ (% change from baseline) [2, 6] [%] | Ratio CS/P [2, 7] | Coronary Sinus Median Δ (% change from baseline) [2, 7] [%] | Peripheral Median Δ (% change from baseline) [2, 7] [%] | also measured
Cn1cnc(CCN)c1 [1-methylhistamine] | 12.9 | 33.2 | 17.0 | 12.1 | – | – | – | Ratio CS/P [2, 6]: 1.4
Nc1ncnc2c1ncn2[C@@H]1O[C@H](COP(=O)(O)O)[C@@H](O)[C@H]1O [AMP, adenosine monophosphate] | – | – | – | – | 10.2 | 102.7 | 10.1 | –
C[C@H](N)C(=O)O [Alanine] | −22.6 | −11.9 | – | – | – | – | – | Median Δ (% change from baseline) [1, 8]: −18.2%; Median Δ (% change from baseline) [1, 9]: −12.4%
Nc1ccn([C@H]2C[C@H](O)[C@@H](COP(=O)(O)O)O2)c(=O)n1 [DCMP, deoxycytidine monophosphate] | – | – | – | – | 19.6 | 32.9 | −1.7 | –
N[C@@H](CCC(=O)O)C(=O)O [Glutamic Acid] | – | – | – | – | 1.5 | 55.4 | 37.6 | –
NC(=O)CC[C@H](N)C(=O)O [Glutamine] | – | – | – | – | 1.7 | 9.7 | 5.8 | –
O=CC(O)CO (stereo not shown) [Glyceraldehyde] | 14.4 | 24.5 | – | – | – | – | – | –
O=C(O)C(CO)OP(=O)(O)O (stereo not shown) [Glycerate-2-P] | – | – | 12.7 | 3.1 | – | – | – | Ratio CS/P [2, 6]: 4.0
O=P(O)(O)OCC(O)CO (stereo not shown) [Glycerol-3-P, glycerol-3-phosphate] | – | – | 31.3 | −7.9 | – | – | – | Ratio CS/P [2, 6]: 4.0
O=c1[nH]cnc2nc[nH]c12 [Hypoxanthine] | 301.7 | 342.5 | 331.6 | 275.1 | 1.9 | 237.9 | 128.1 | Median Δ (% change from baseline) [1, 8]: 189.6%; Median Δ (% change from baseline) [1, 9]: 249.6%; Observed increase in response to injury [1]: 301%; Ratio CS/P [2, 6]: 1.3
OC[C@H]1O[C@@H](n2cnc3c(O)ncnc32)[C@H](O)[C@@H]1O [Inosine] | 51.6 | 35.7 | – | – | 8.2 | 86.9 | 10.6 | –
CC(O)C(=O)O (stereo not shown) [Lactic Acid] | – | – | – | – | 394.5 | 23.5 | 0.06 | –
O=C(O)CC(O)C(=O)O (stereo not shown) [Malic Acid] | – | – | 21.3 | 9.4 | 4.3 | 29.9 | 6.9 | Ratio CS/P [2, 6]: 2.3
O=C(O)CC(=O)O [Malonic Acid] | 47.9 | 43.7 | – | – | 2.2 | 32.8 | 15.0 | Median Δ (% change from baseline) [1, 8]: 16.0%; Median Δ (% change from baseline) [1, 9]: 24.2%
O=C(O)c1cc(=O)[nH]c(=O)[nH]1 [Orotic Acid] | – | – | 22.4 | 0.87 | – | – | – | Ratio CS/P [2, 6]: 25.9
O=C(O)[C@@H]1CCCN1 [Proline] | −4.6 | −4.2 | – | – | – | – | – | –
N[C@@H](CO)C(=O)O [Serine] | −10.0 | −8.9 | – | – | – | – | – | –
O=C(O)CCC(=O)O [Succinic Acid] | – | – | 14.3 | 2.1 | – | – | – | Ratio CS/P [2, 6]: 6.9
NCCS(=O)(=O)O [Taurine] | – | – | 7.3 | 2.1 | – | 15.1 | −2.0 | Observed increase in response to injury [1]: 15%
C[C@@H](O)[C@H](N)C(=O)O [Threonine] | −7.5 | −6.9 | – | – | – | – | – | Median Δ (% change from baseline) [1, 8]: −10.0%; Median Δ (% change from baseline) [1, 9]: −4.9%
C[N+](C)(C)[O-] [Trimethylamine-N-Oxide] | −20.2 | −32.4 | – | – | – | – | – | Median Δ (% change from baseline) [1, 8]: −15.5%; Median Δ (% change from baseline) [1, 9]: −24.4%
O=c1[nH]c(=O)c2[nH]cnc2[nH]1 [Xanthine] | 48.1 | 71.9 | – | – | – | – | – | –
N[C@@H](Cc1ccccc1)C(=O)O [phenylalanine] | – | – | – | – | – | – | – | Change with cardiac catheterization alone [3]: associated with changes
N[C@@H](Cc1c[nH]c2ccccc12)C(=O)O [tryptophan] | – | – | – | – | – | – | – | Change with cardiac catheterization alone [3]: associated with changes
N[C@@H](Cc1ccc(O)cc1)C(=O)O [tyrosine] | – | – | – | – | – | – | – | Change with cardiac catheterization alone [3]: associated with changes
Aminoisobutyric Acid | 45.5 | 27.7 | – | – | – | – | – | Median Δ (% change from baseline) [1, 8]: 31.7%; Median Δ (% change from baseline) [1, 9]: 2.9%
Isoleucine/Leucine | 10.6 | 13.3 | 13.8 | 9.8 | – | – | – | Median Δ (% change from baseline) [1, 8]: 7.0%; Median Δ (% change from baseline) [1, 9]: 7.4%; Ratio CS/P [2, 6]: 1.4
Ribose-5-P/Ribulose-5-P | – | – | – | – | 2.5 | 18.1 | −7.3 | –
asymmetric dimethyl arginine (ADMA)/symmetric dimethyl arginine (SDMA) [ADMA/SDMA] | – | – | – | – | 5.0 | −14.9 | −2.9 | –
